Assay results published in the RNAGym collection of RNA variant scans (doi:10.1126/science.aae0568).
Variants at the floor of the assay are shown more often than the library holds them.

B1: tRNA (parent)
chain: GUUCCGUUGGCGUAAUGGUAACGCGUCUCCCUCCUAAGGAGAAGACUGCGGGUUCGAGUCCCGUACGGAACG

Variants of: B1
Test: yeast fitness relative to wild type (ratio to wild type); higher = fitter; tRNA-Arg(CCU), competitive growth, 37 C, YPD
In short: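 Genotype frequency changes were the basis for Darwinian fitness relative to wild type. The frequencies came from 100-nucleotide paired-end sequencing of gene amplicons from the start population and each end population of pooled yeast strains with tRNA-Arg(CCU) gene variants at the native locus. Competition ran in YPD at 37°C for 24 hours in six replicates, genotypes needed ≥ 100 starting reads, and estimates < 0.5 were set to 0.5.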

Variant	yeast fitness
U2A A14C G48A	≤ 0.5
C11U G12A G18C C46U C66U	≤ 0.5
C27U A36C C62U	≤ 0.5
C11G A14C C30U	≤ 0.5
G6C C11U A21C A65G	≤ 0.5
G9A G10A C31G G48A C55A G58C	≤ 0.5
U2A C24U U35C C66U	≤ 0.5
U26A C27U G56C G68A A70U	≤ 0.5
U2C U28G A43U G56C A57U G67A	≤ 0.5
C22U A42G G52A C55A	≤ 0.5
C11U C22G A40U A43G G48C G51C A57G C61G	≤ 0.5
C24A C46U C61A	≤ 0.5
U13C C29U	0.831
G12C A14C U26C A40G G56A C66U A69U	≤ 0.5
U28G C30G A37G A40C A42U	≤ 0.5
G10C C49G G56C A70U	≤ 0.5
C24A A40U A70U	≤ 0.5
C29U C30U A65G	0.704
C5U C22G C31G U54G	≤ 0.5
U3G U7A G9A G23C C30U C31G A43C G51A	≤ 0.5
U13A C24G G25A	≤ 0.5
A40G U47A C61U G68C	≤ 0.5
A20U A21G C27G C60G A69G	≤ 0.5
U2A U32C C60G	≤ 0.5

Variant	yeast fitness
C4G U8A U16G U19C A21C C49U G50A	≤ 0.5
U2G A20C G38A	≤ 0.5
A14G G17C A36C G48A C49G G51A A70C	≤ 0.5
A21C C24G U32A A42C	≤ 0.5
A15U C24A G25A G38A C66U	≤ 0.5
G9A U16C U28A C34U A42C G48C	≤ 0.5
A42G A57C	0.7
C30G C46G U53C	≤ 0.5
A14U G23A C29G C46A C55G G68A A70C	≤ 0.5
G39C C60G C62A	≤ 0.5
U8C C27G C34A C49U C60A	≤ 0.5
U2C U7A A65U	0.725
C11U A20U C22A C66G	≤ 0.5
C11A A14G U16C A43U G58C C61U	≤ 0.5
U13C A20G C46A C62U A70U	≤ 0.5
G10C U16A A65G	≤ 0.5
A40C A42U C66U	≤ 0.5
A15G C24G C29U	≤ 0.5
C24U U32G A42G	≤ 0.5
A20U A42U C49U U59A	≤ 0.5
G6A A14C C34G A57U	≤ 0.5
G52C C60G	≤ 0.5
A14G U28A A45C U53A	≤ 0.5
U2A C30U A42G	≤ 0.5

Variant	yeast fitness
U2A C24G A70U	≤ 0.5
G9A A14C U59A C60G	≤ 0.5
A36G A42G C49G	≤ 0.5
C34G U54A A65G	≤ 0.5
C5U G23C A45C A70U	≤ 0.5
G9A U47A U53C A57G C66U	≤ 0.5
G18A A20C U47G G52A	≤ 0.5
C24A U26G A43C G51A C62G G63A C66G A69G	≤ 0.5
G10A A45U C61U	0.536
G10A A21C G56C	≤ 0.5
C5A G23A C24U U53A G67U G68A	≤ 0.5
C5U U13C C30U A40G G50A	≤ 0.5
C31G A45G U47A	0.893
C5U G6C A15C U26A G38C A43C	≤ 0.5
U3A G6C U35A G50C A65C	≤ 0.5
G6A A20U G25A	0.574
G10A U16A G23A C30G G51C	≤ 0.5
A14G C24G C31U C55A G68C	≤ 0.5
U7G A14C A20G C22U C49G G56C	≤ 0.5
G9A C27U A36G	0.59
C4G U7A C29U G44A	≤ 0.5
U2C A42U	0.937
U8C C30G C31G U47C A65C	≤ 0.5
U7G C27A C29U A40U	≤ 0.5

Variant	yeast fitness
C5U G6A C66U	0.975
G12C C34A G44A C46U G68A	≤ 0.5
C4A A21G C61U A69U	≤ 0.5
G23C A36U	≤ 0.5
U19A C22U C30A C31U A36G G50A A65G C66U	≤ 0.5
C5U A45U	1.01
G23C C31A C62A	0.527
C4A G10A U32C A36U	≤ 0.5
A42C A45G G51A	≤ 0.5
U2A A70U	1.06
C4G C33U	0.708
A14U C30U U54A C62U	≤ 0.5
C5G A14U G25A G56A G67A	≤ 0.5
G10C A57G C62G C66G	≤ 0.5
C4U C33U C55A	≤ 0.5
C34A C46U A65C	0.569
U2G C30G C49A G56A C60G G68C	≤ 0.5
G6A C11G A21U	≤ 0.5
A20G C29A A70C	≤ 0.5
G12C U26A C33A	≤ 0.5
U3C C30U U35A	≤ 0.5
C11G U54G	≤ 0.5
A20C A57C C60A	≤ 0.5
G18A C30U A40G C46U	≤ 0.5

Variant	yeast fitness
U13A C29A C31G C55G C66A	≤ 0.5
C46G C62A A69C	≤ 0.5
C11U G12A C31U U53C	≤ 0.5
C27G C30U U32C U59C	≤ 0.5
U19A A70U	1.03
C5A C24G C31G U47A	≤ 0.5
G12C G25A A45C C66U	≤ 0.5
C4U C30G C46U G52A G67C	≤ 0.5
C34U G44C U47G A65G	≤ 0.5
A20G A43G	1.07
C30U C34A A36U G67A	≤ 0.5
U2A A40U G48A A65C	≤ 0.5
C34A A42U A70U	≤ 0.5
A21C G23C C30U G52C A65C	≤ 0.5
C29G C55G A70G	≤ 0.5
G6A U19G U28A A42U C60U	≤ 0.5
A20C C27A C30A C31U	≤ 0.5
C11U G38C	0.715
U2A U13C G38A	≤ 0.5
C29A U32C A42U C49U C66U	≤ 0.5
U8C C22U	0.768
A14G C24U C34U C61U	≤ 0.5
C5A C22U A45G C49A A69C	≤ 0.5
U35C A37C G68C A70C	0.913

Variant	yeast fitness
U8C G9A C29G	≤ 0.5
G12A U26C A36C G56C	≤ 0.5
A36C G51A	≤ 0.5
A43C G50C C55G	≤ 0.5
C4U A36C C46U G67C	≤ 0.5
A40C G41C A57C G58A	≤ 0.5
C4A G50A G63C	≤ 0.5
C5A C24U U64C	0.639
C30U A36U G63A	≤ 0.5
C33G A42G G52A C62A A70U	0.589
G6A C11U C33U C66U	≤ 0.5
G6C G9C C27G A37U U54C C62A G68C	≤ 0.5
C33U C49G C60G C62G G63A	≤ 0.5
A15G G56A C60G	≤ 0.5
U2A G23C A36U C66U G67A	≤ 0.5
A14U A36U G41A C49G A69U	≤ 0.5
A36C A40U A57G	≤ 0.5
C4G G23A C27U C46U	≤ 0.5
C5U A45C A70U	0.813
C46U U59C	1.03
U19G A36C A65G	≤ 0.5
C4G A43U A70U	0.623
G6A C33U G48A	≤ 0.5
G9C C33A U59G	≤ 0.5

Variant	yeast fitness
G10A A14U C31A C46A A57C	≤ 0.5
A57C A65U	0.606
A14G G38A	0.799
C22U A40C C62G	≤ 0.5
C24A U59A C61U	0.567
A15U C31U G67C	≤ 0.5
G9A U28C G44A G51C G58C G63A	≤ 0.5
C4U C33A A40U G68A	≤ 0.5
C33G C55G	≤ 0.5
U7C C29A A40G C62A	≤ 0.5
A14U C30U G68A	≤ 0.5
C4U G9C C11G A14C U28A G63C	≤ 0.5
U28C C33U G58C	≤ 0.5
C22U C27G C31U G68A	≤ 0.5
U8G C24U A36C C61U G68A	≤ 0.5
C22A C29A	0.636
C30U A43G A45G	≤ 0.5
U2C C60G A65G	≤ 0.5
C24G C30U C34A G51A A69C	≤ 0.5
A20U C29G A42G A45G A69U	≤ 0.5
U35G A40U C61A	≤ 0.5
U3C C34U G41C U53A	≤ 0.5
C30A G44A G67C	≤ 0.5
